No constants are given. Whether binding was seen depends on the method and setting. Binding seen in cells or lysates may run through a third protein. Where a sequence is shown, tags or fusion partners need not be part of it.

In this experiment the target is T1, C15orf39-GFP (human) (UniProt Q6ZRI6).
T1 sequence: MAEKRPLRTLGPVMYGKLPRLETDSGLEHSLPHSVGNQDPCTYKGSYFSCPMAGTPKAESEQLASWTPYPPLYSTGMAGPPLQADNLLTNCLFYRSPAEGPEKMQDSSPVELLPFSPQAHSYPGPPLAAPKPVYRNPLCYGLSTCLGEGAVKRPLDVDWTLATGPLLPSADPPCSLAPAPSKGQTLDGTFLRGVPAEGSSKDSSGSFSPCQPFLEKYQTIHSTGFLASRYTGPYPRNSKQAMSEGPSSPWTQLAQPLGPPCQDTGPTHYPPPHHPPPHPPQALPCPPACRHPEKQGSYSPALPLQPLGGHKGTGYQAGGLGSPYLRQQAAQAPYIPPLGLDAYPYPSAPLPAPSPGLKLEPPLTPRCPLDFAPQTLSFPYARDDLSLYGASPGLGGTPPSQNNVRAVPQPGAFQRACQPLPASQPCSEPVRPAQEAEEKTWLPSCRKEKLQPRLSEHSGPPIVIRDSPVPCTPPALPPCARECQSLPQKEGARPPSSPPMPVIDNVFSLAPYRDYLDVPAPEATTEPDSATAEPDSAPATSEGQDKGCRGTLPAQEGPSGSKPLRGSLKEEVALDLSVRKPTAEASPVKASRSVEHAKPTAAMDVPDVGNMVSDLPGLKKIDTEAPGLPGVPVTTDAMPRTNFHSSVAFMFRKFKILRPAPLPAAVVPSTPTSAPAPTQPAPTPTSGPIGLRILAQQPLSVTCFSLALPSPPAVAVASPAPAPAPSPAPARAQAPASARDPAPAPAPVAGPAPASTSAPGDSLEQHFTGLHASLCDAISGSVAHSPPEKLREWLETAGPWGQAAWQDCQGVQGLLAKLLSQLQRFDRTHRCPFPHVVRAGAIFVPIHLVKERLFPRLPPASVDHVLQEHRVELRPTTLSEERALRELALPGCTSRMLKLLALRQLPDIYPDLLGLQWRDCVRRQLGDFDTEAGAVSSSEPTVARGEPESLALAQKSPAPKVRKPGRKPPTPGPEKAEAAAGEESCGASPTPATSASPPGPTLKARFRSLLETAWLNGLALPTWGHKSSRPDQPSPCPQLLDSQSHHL
Briefly: co-IP; HMC3 cells co-transfected with C15orf39-GFP and Flag-tagged PRMT2 constructs; NP40 lysis buffer; anti-GFP antibody on protein A Dynabeads added to lysate, 1 h at RT; five washes; western blot with anti-Flag antibody.

B1: PRMT2 (1–95), Flag-tagged (domain or fragment, UniProt P55345 1-95)
chain: MATSGDCPRSESQGEEPAECSEAGLLQEGVQPEEFVAIADYAATDETQLSFLRGEKILILRQTTADWWWGERAGCCGYIPANHVGKHVDEYDPED
For B1, the binding entry was “no binding”.

The values are drawn from paper PMC11173073.
